Source: paper PMC8839658, “Design and Activity of Novel Oxadiazole Based Compounds That Target Poly(ADP-ribose) Polymerase” (Molecules, 2022)

Tested on: MCF-7 cells
Assay: MCF-7 cell viability assay (Alamar Blue)
Assay type: cell-based
Conditions: Homo sapiens, MCF7, 72 h, MCF-7, 72 h
Description: Initially, the newly synthesized oxadiazoles were examined in cell viability studies in human breast cancer (MCF-7) cells using Alamar Blue assays.
MCF-7 and MDA-MB-231 (2000) cells were cultured in MEM or Leibovitz’s L-15 medium enriched with 2% FBS and maintained in a humidified atmosphere of 5% CO2 at 37 °C [44]. DMSO dissolved compounds were kept as a stock solution, and diluted with a cell culture medium to the desired concentration. Cancer cells (4 × 10^3) were grown overnight in 96-well plates, cultured, and treated with oxadiazoles or Olaparib at 0, 0.01, 0.1, 10, 100, and 1000 µM concentrations for 72 h. The inhibitory effect of the compounds was assessed using Alamar Blue reagent.
MCF-7 and MDA-MB-231 were treated with 5u, 5s and Olaparib (0, 0.01, 0.1, 1, 10, 100 µM) for 72 h, respectively. The viability of MCF-7 (A) and MDA-MB-231 cells (B) were analyzed using a microplate reader to measure the fluorescence of Alamar Blue reagent (excitation wavelength is between 530–560 nm and emission wavelength is 590 nm). The results are means of triplicate determinations.

IC50: 1.69 µM
Structure (SMILES): CC/C(=C(\c1ccccc1)c1ccc(OCCN(C)C)cc1)c1ccccc1 [Tamoxifen, reference compound]
